# Test results: patent EP4752145A1, “DIAMINOCYCLOPENTYL SUBSTITUTED HETEROARYL DERIVATIVES, USE THEREOF AND PREPARATION METHOD THEREFOR” (Tuojie Biotech (Shanghai) Co., Ltd., priority 2023, dated 2025)
# Protein sequences, listed by entry. Tags and fused reporters are not part of them. Residues count along the entry.
# UniProt Q8NBP7, 153-692: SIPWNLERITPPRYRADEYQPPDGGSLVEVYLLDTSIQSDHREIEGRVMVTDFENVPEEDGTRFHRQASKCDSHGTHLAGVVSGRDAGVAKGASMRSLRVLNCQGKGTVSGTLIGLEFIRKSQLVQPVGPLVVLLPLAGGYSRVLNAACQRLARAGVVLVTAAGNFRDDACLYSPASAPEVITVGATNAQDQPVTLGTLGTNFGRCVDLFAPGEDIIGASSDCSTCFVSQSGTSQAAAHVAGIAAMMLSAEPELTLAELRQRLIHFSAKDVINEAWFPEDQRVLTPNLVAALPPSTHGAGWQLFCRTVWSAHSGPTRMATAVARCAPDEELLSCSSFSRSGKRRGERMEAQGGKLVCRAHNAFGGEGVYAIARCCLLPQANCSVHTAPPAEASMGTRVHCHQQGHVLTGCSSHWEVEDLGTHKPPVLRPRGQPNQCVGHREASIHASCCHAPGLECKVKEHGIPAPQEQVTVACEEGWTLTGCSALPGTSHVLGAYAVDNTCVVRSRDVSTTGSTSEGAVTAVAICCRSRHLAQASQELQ
# Some results were stated once for a whole list of compounds, not compound by compound.
# Molecular target: PCSK9 (biotinylated) (Homo sapiens, UniProt Q8NBP7)
# Assay: Binding of compounds to PCSK9 by SPR (BIAcore S200, SA chip)
# Settings: comparison in words with Example 3
# Procedure: Table 1. Main experimental materials and instruments
# • 1) Protein: PCSK9 (biotinylated) (Acro). The protein was dissolved in water to 200 µg/mL, and the solution was stored at -80 °C. • 2) Chip: SA chip. • 3) Running buffer: 1 × HBSP + 4% DMSO + 0.1 mM CaCl2.
# • 1) The chip was pre-warmed to room temperature. • 2) The required buffer was prepared and filtered through a 0.22 µm filter membrane. • 3) The chip was loaded, and parameters were written to the chip. • 4) The PCSK9 protein was diluted to 50 µg/mL in PBS. • 5) An immobilization program was set on the BIAcore S200 instrument. • 6) The immobilization program was run. • 7) The final immobilization response value was 8000 RU, and the maximum response value was 49.4 RU.
# 1) The compounds were serially diluted 3-fold in the running buffer. The reference compound was diluted 3-fold from 0.4 µM. The test compounds were diluted 3-fold from 10 µM. 2) A dissolution correction buffer was prepared according to the table below: Table 2. Dissolution correction buffer
# 3) The "LMW multi kinetics" program of the instrument was set as a running program for compound testing. • a) The association time was set at 100 s, and the dissociation time was set at 300 s. 4) The compound testing program was run.
# 1) Rmax = (MWanalyte/MWligand) × RL × Sm [formula] […]
row,SMILES,binding compared with that of Example 3
1,"O=c1ccccn1-c1cnc(N[C@H]2CC[C@H](Nc3ncc4c(n3)OCCO4)C2)cn1 [Example 7, 1-(5-{[(1S,3S)-3-(6,7-Dihydro[1,4]dioxino[3,2-d]pyrimidin-2-ylamino)cyclopentyl]amino}pyrazin-2-yl)-1,2-dihydropyridin-2-one]",comparable
2,"O=C1c2ccccc2CN1c1cnc(N[C@H]2CC[C@H](Nc3ncc4c(n3)OCCO4)C2)cn1 [Example 8, 2-(5-{[(1S,3S)-3-(6,7-Dihydro[1,4]dioxino[3,2-d]pyrimidin-2-ylamino)cyclopentyl]amino}pyrazin-2-yl)-2,3-dihydro-1H-isoindol-1-one]",comparable
